In test [1] the target is T1, Whi5^13MYC (S. cerevisiae) (UniProt Q12416).
T1 sequence: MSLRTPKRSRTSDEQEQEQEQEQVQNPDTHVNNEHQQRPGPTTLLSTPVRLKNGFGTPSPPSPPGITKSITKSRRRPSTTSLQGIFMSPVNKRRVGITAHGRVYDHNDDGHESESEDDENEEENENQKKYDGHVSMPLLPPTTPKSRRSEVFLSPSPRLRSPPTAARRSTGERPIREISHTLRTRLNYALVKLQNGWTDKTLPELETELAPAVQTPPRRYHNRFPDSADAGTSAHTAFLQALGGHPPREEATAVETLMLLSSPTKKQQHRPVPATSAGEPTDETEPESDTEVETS
The test is described as follows: co-IP.

The target in a further test is T2, Whi5^HA (S. cerevisiae) (UniProt Q12416).
T2 sequence: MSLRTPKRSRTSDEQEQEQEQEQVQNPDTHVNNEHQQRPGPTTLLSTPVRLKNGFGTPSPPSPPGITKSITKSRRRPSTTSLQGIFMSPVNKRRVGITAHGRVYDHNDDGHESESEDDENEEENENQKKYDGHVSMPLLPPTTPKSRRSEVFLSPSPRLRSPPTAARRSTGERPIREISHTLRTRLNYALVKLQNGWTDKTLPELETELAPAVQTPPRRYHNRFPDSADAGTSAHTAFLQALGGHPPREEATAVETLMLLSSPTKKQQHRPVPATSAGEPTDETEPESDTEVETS
In words: co-IP.

For test [2], the target named is T3, ^FLAGMbp1 (recombinant, insect cells) (S. cerevisiae) (UniProt P39678).
T3 sequence: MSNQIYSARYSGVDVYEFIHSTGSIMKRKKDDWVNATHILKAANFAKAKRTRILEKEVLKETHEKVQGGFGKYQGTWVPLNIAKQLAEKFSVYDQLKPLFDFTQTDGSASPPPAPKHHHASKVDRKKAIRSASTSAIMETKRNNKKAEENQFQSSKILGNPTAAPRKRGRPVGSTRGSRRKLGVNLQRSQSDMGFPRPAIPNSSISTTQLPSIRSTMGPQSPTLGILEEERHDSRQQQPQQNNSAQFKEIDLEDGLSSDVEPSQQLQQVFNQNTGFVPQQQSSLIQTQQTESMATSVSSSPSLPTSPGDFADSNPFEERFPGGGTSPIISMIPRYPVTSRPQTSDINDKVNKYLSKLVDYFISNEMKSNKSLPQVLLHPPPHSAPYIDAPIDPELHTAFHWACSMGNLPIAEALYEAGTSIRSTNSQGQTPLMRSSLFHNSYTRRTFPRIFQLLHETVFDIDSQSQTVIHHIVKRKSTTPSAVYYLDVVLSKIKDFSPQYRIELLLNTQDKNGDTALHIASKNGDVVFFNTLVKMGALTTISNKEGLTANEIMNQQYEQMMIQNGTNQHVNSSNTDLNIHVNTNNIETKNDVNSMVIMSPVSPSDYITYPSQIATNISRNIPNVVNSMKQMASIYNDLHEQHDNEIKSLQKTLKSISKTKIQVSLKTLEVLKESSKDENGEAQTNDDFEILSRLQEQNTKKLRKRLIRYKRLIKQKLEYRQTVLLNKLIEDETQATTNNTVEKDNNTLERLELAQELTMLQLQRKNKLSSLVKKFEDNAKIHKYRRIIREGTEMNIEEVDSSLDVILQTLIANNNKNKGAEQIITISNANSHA
In words: co-purification on anti-FLAG resin.

The target of test [3] is T4, ^FLAGSwi4 (recombinant, insect cells) (S. cerevisiae) (UniProt P25302).
T4 sequence: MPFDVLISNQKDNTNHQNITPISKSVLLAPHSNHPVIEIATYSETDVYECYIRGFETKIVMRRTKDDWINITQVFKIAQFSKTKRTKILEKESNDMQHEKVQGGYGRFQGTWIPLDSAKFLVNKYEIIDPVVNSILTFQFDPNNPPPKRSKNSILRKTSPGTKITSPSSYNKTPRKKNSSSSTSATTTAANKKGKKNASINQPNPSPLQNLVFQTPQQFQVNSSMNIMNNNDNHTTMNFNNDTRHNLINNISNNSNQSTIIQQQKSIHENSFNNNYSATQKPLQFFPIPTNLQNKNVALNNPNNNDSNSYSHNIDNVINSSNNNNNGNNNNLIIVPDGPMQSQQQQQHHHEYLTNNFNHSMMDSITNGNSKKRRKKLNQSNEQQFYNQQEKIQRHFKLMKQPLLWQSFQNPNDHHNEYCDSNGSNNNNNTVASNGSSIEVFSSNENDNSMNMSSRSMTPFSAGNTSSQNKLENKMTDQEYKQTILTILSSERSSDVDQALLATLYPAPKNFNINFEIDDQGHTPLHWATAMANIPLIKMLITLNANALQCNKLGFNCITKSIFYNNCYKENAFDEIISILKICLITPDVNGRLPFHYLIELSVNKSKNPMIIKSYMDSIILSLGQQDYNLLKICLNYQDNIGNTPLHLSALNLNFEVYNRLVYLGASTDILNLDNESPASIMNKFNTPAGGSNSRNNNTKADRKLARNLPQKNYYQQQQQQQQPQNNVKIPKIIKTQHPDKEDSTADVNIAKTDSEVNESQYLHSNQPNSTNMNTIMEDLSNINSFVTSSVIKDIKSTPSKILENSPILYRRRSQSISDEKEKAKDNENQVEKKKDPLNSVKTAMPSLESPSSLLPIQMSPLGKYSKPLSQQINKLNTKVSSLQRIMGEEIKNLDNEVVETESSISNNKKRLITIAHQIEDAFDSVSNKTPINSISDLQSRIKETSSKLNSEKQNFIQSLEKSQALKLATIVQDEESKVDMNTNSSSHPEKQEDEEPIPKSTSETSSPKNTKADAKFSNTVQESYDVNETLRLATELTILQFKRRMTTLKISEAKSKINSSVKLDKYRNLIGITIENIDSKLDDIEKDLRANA
The test is described as follows: co-purification on anti-FLAG resin.

In paper doi:10.1101/2020.04.20.033787 (bioRxiv, 2020) one finds binding data, which are given here for three molecules.

These are yes or no findings as the source states them, for the method shown. For part of these data: Binding seen in cells or lysates may run through a third protein. Some entries that bind do so weakly or less than the wild type. Tags and fused reporters may be left off the sequences shown.

B1: Swi6 (protein, UniProt P09959 1-803)
chain: MALEEVVRYLGPHNEIPLTLTRDSETGHFLLKHFLPILQQYHDTGNINETNPDSFPTDEERNKLLAHYGIAVNTDDRGELWIELEKCLQLLNMLNLFGLFQDAFEFEEPETDQDEEDPSHSKLPENKTKSENSKDNISSKRINNLQDMSLDSDAHRELGSPLKKLKIDTSVIDAESDSTPNTARGKPNDDINKGPSGDNENNGTDDNDRTAGPIITFTHDLTSDFLSSPLKIMKALPSPVVNDNEQKMKLEAFLQRLLFPEIQEMPTSLNNDSSNRNSEGGSSNQQQQHVSFDSLLQEVNDAFPNTQLNLNIPVDEHGNTPLHWLTSIANLELVKHLVKHGSNRLYGDNMGESCLVKAVKSVNNYDSGTFEALLDYLYPCLILEDSMNRTILHHIIITSGMTGCSAAAKYYLDILMGWIVKKQNRPIQSGTNEKESKPNDKNGERKDSILENLDLKWIIANMLNAQDSNGDTCLNIAARLGNISIVDALLDYGADPFIANKSGLRPVDFGAGTSKLQNTNGGDENSKMVSKGDYDGQKNGKAKKIRSQLLKNPPETTSLINDVQNLLNSISKDYENETVQYNEKLEKLHKELNEQREELANSREQLANVKQLKDEYSLMQEQLTNLKAGIEEEEESFREESKKLGIIADESSGIDWDSSEYDADEPFKVEFLSDFLEDKLQKNYEGDISKLLEAESKEQIMEQIRNQLPAEKIQSMLPPTVLLKARINAYKRNDKHLTNVLDTISTKQSELENKFRRVLSLCLKIDENKVDNMLDGLLQAISSEDPQDIDTDEMQDFLKKHAS
B1: the binding entry (in test [1]; with Whi5^HA (S. cerevisiae)) was “binds” in each case.

B2: Swi6 (recombinant, insect cells) (protein, UniProt P09959 1-803)
chain: MALEEVVRYLGPHNEIPLTLTRDSETGHFLLKHFLPILQQYHDTGNINETNPDSFPTDEERNKLLAHYGIAVNTDDRGELWIELEKCLQLLNMLNLFGLFQDAFEFEEPETDQDEEDPSHSKLPENKTKSENSKDNISSKRINNLQDMSLDSDAHRELGSPLKKLKIDTSVIDAESDSTPNTARGKPNDDINKGPSGDNENNGTDDNDRTAGPIITFTHDLTSDFLSSPLKIMKALPSPVVNDNEQKMKLEAFLQRLLFPEIQEMPTSLNNDSSNRNSEGGSSNQQQQHVSFDSLLQEVNDAFPNTQLNLNIPVDEHGNTPLHWLTSIANLELVKHLVKHGSNRLYGDNMGESCLVKAVKSVNNYDSGTFEALLDYLYPCLILEDSMNRTILHHIIITSGMTGCSAAAKYYLDILMGWIVKKQNRPIQSGTNEKESKPNDKNGERKDSILENLDLKWIIANMLNAQDSNGDTCLNIAARLGNISIVDALLDYGADPFIANKSGLRPVDFGAGTSKLQNTNGGDENSKMVSKGDYDGQKNGKAKKIRSQLLKNPPETTSLINDVQNLLNSISKDYENETVQYNEKLEKLHKELNEQREELANSREQLANVKQLKDEYSLMQEQLTNLKAGIEEEEESFREESKKLGIIADESSGIDWDSSEYDADEPFKVEFLSDFLEDKLQKNYEGDISKLLEAESKEQIMEQIRNQLPAEKIQSMLPPTVLLKARINAYKRNDKHLTNVLDTISTKQSELENKFRRVLSLCLKIDENKVDNMLDGLLQAISSEDPQDIDTDEMQDFLKKHAS
As for B2, the binding result in test [2] and in test [3] was “binds” each time.

B3: Swi4 (protein, UniProt P25302 1-1093)
chain: MPFDVLISNQKDNTNHQNITPISKSVLLAPHSNHPVIEIATYSETDVYECYIRGFETKIVMRRTKDDWINITQVFKIAQFSKTKRTKILEKESNDMQHEKVQGGYGRFQGTWIPLDSAKFLVNKYEIIDPVVNSILTFQFDPNNPPPKRSKNSILRKTSPGTKITSPSSYNKTPRKKNSSSSTSATTTAANKKGKKNASINQPNPSPLQNLVFQTPQQFQVNSSMNIMNNNDNHTTMNFNNDTRHNLINNISNNSNQSTIIQQQKSIHENSFNNNYSATQKPLQFFPIPTNLQNKNVALNNPNNNDSNSYSHNIDNVINSSNNNNNGNNNNLIIVPDGPMQSQQQQQHHHEYLTNNFNHSMMDSITNGNSKKRRKKLNQSNEQQFYNQQEKIQRHFKLMKQPLLWQSFQNPNDHHNEYCDSNGSNNNNNTVASNGSSIEVFSSNENDNSMNMSSRSMTPFSAGNTSSQNKLENKMTDQEYKQTILTILSSERSSDVDQALLATLYPAPKNFNINFEIDDQGHTPLHWATAMANIPLIKMLITLNANALQCNKLGFNCITKSIFYNNCYKENAFDEIISILKICLITPDVNGRLPFHYLIELSVNKSKNPMIIKSYMDSIILSLGQQDYNLLKICLNYQDNIGNTPLHLSALNLNFEVYNRLVYLGASTDILNLDNESPASIMNKFNTPAGGSNSRNNNTKADRKLARNLPQKNYYQQQQQQQQPQNNVKIPKIIKTQHPDKEDSTADVNIAKTDSEVNESQYLHSNQPNSTNMNTIMEDLSNINSFVTSSVIKDIKSTPSKILENSPILYRRRSQSISDEKEKAKDNENQVEKKKDPLNSVKTAMPSLESPSSLLPIQMSPLGKYSKPLSQQINKLNTKVSSLQRIMGEEIKNLDNEVVETESSISNNKKRLITIAHQIEDAFDSVSNKTPINSISDLQSRIKETSSKLNSEKQNFIQSLEKSQALKLATIVQDEESKVDMNTNSSSHPEKQEDEEPIPKSTSETSSPKNTKADAKFSNTVQESYDVNETLRLATELTILQFKRRMTTLKISEAKSKINSSVKLDKYRNLIGITIENIDSKLDDIEKDLRANA
For B3, the binding entry (in test [1]; in the test with Whi5^HA (S. cerevisiae)) was “binds” throughout.
